For the experiment, the target named is Nap1-TAP (S. cerevisiae) (UniProt P25293). The experiment is described as follows: affinity purification with mass spectrometry; Nap1-TAP purified from a Nap1-TAP Rps6a-Flag yeast strain (standard TAP, and Rps6a-Flag depleted pool); LC-MS/MS of eluates and mass spectrometry of Coomassie-stained gel bands.

Amino acid sequences for entries named in this document (tags omitted).
UniProt P25293: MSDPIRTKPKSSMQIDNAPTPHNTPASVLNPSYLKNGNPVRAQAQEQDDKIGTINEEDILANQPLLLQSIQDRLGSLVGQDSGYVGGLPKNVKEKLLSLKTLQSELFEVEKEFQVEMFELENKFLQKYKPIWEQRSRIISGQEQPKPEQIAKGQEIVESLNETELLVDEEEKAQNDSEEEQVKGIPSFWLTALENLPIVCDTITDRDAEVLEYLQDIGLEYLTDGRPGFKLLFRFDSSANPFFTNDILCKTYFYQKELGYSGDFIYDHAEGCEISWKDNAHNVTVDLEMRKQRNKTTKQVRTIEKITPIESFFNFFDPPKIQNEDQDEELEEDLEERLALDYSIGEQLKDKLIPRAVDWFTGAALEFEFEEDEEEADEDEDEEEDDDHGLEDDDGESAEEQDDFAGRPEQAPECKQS
UniProt Q12692: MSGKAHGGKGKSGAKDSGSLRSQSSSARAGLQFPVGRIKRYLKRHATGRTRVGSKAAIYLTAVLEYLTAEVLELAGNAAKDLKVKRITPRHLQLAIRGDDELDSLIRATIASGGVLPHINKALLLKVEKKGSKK

No constants are given. Whether binding was seen depends on the method and setting. In cells and extracts the contact can be indirect. Here binding means that the protein was enriched with, or labelled near, the bait; the list need not be complete.

In article PMC6648895 one finds binding data, which are given here for 3 molecules.

With Htz1 (from UniProt Q12692 1-134), the binding entry is recorded as “binds”.

B1: Kcc4 (enzyme, UniProt P25389 1-1037)
chain: MTVANTETHSAAKPSSTIGPWKLGETLGFGSTGKVQLAQHERTGHRTAVKVISKSIFNNNGNHSNDDSVLPYNIEREIVIMKLLSHPNVLSLYDVWETNNNLYLILEYAEKGELFNLLVDHGPLPEREAINCFRQIIIGISYCHALGIVHRDLKPENLLLDSFYNIKIADFGMAALQTDADLLETSCGSPHYAAPEIVSGLPYEGFASDVWSCGVILFALLTGRLPFDEENGNVRDLLLKVQKGQFEMPNDTEISRDAQDLIGKILVVDPRQRIKIRDILSHPLLKKYQTIKDSKSIKDLPRENTYLYPLADSNNHTSASIDDSILQNLVVLWHGRHADDIVSKLKENGTNKEKILYALLYRFKLDSVRGSNKKNRNKIKKTKKNKRSSTLSSSSSLLLNNRSIQSTPRRRTSKRHSREFSSSRKRSSFLLSSNPTDSSPIPLRSSKRITHINVASANTQATPSGVPNPHKRNSKKRSSKRLSYMPNTKRSSLTSKSLSNFTNLIDDDDWEYIEKDAKRTSSNFATLIDEIFEPEKFELAKREKAELQRKVQEAKRQSVNAQKINEDEFGSEVSDGMKELKKINDKVSSPLINYEFSQQELLQDIDTLLTNRYQLSSYTRPISRLDPGLTPVTETLPNNLKEKTALLQDTEKKIIETIRRSKFLGSLLNVRGGLSPGKSELAPIEESPIVSTTPLIYNDRMEPRRISDVEVPHFTRKSKHFTTANNRRSVLSLYAKDSIKDLNEFLIKEDPDLPPQGSTDNESRSEDPEIAESITDSRNIQYDEDDSKDGDNVNNDNILSDFPQGVGISQEYDMKDKNPNQSPISKSAEPTLVVKLPSLSSFQGKNASGLGLYQREPSKVTLPSLTSNNSSVGENIEDGAEKGTESEKIAASLSDDDLKEDNDKKDNDTVNAPTTVKKPPNSVLLKKFSKGKILELEIHAKIPEKRLYEGLHKLLEGWKQYGLKNLVFNITNMIITGKLVNDSILFLRSTLFEIMVLPNGDGRSLIKFNKKTGSTKTLTKLATEIQIILQKEGVLDK
As for B1, the binding result is listed as “binds”.

B2: Gin4 (enzyme, UniProt Q12263 1-1142)
chain: MAINGNSIPAIKDNTIGPWKLGETLGLGSTGKVQLARNGSTGQEAAVKVISKAVFNTGNVSGTSIVGSTTPDALPYGIEREIIIMKLLNHPNVLRLYDVWETNTDLYLVLEYAEKGELFNLLVERGPLPEHEAIRFFRQIIIGVSYCHALGIVHRDLKPENLLLDHKYNIKIADFGMAALETEGKLLETSCGSPHYAAPEIVSGIPYQGFASDVWSCGVILFALLTGRLPFDEEDGNIRTLLLKVQKGEFEMPSDDEISREAQDLIRKILTVDPERRIKTRDILKHPLLQKYPSIRDSKSIRGLPREDTYLTPLSESNSSIDATILQNLVILWHGRDPEGIKEKLREPGANAEKTLYALLYRFKCDTQKELIKQQQVKKRQSISSVSVSPSKKVSTTPQRRRNRESLISVTSSRKKPISFNKFTASSASSSNLTTPGSSKRLSKNFSSKKKLSTIVNQSSPTPASRNKRASVINVEKNQKRASIFSTTKKNKRSSRSIKRMSLIPSMKRESVTTKLMSTYAKLAEDDDWEYIEKETKRTSSNFATLIDEIFEYEKYEQIRKEKEELERKVREAKAREELERRRRKQEEKERARKLLEKEDLKRKQEELKKQIEIDISDLEQELSKHKEEKLDGNIRSISAPMENEEKNINHLEVDIDNILRRRNFSLQTRPVSRLDPGIMFSSPTEEVSPVEPKRTENERLTTEKKILETIRRSKFLGSSFNIDKELKLSKMEYPSIIAPQRLSEERVVSDSNDGYESLILPKDGNGVSQLKDSTATTAPVSDGRLRKISEIRVPQFTRKSRHFSESNKRLSVLSMYSTKESFTNLVDILKNGNLDVNNQQSQRIPTPRSADDSEFLFETVNEEAEYTGNSSNDERLYDVGDSTIKDKSALKLNFADRFNGSNEAKQTDNLHLPILPPLNGDNELRKQNSQEGDQAHPKIKSMIPESGSSSHTEKEEENEEKEEKKPEQHKQEEDQEKREKVVDDMEPPLNKSVQKIREKNAGSQAKDHSKDHLKEHKQDKNTAIGNGSFFRKFSKSSDKTMELYAKISAKQLFNGLEKLLRGWTQYGLKNIKSHPNNLTLTGKLSSDNIFSLRSTLFEVNIYPRGKMSVVQFKKVSGSFKAVKKLVNEVENVLNKEGVLQK
Consider B2, for which the binding entry is on record as “binds”.
